# Source: the supplement of paper PMC10849652
# Sequences of proteins named here, by UniProt entry; tags and fusion partners are left off. A change or cut given only in a name is not applied to a line headed by its entry.
# UniProt O00178: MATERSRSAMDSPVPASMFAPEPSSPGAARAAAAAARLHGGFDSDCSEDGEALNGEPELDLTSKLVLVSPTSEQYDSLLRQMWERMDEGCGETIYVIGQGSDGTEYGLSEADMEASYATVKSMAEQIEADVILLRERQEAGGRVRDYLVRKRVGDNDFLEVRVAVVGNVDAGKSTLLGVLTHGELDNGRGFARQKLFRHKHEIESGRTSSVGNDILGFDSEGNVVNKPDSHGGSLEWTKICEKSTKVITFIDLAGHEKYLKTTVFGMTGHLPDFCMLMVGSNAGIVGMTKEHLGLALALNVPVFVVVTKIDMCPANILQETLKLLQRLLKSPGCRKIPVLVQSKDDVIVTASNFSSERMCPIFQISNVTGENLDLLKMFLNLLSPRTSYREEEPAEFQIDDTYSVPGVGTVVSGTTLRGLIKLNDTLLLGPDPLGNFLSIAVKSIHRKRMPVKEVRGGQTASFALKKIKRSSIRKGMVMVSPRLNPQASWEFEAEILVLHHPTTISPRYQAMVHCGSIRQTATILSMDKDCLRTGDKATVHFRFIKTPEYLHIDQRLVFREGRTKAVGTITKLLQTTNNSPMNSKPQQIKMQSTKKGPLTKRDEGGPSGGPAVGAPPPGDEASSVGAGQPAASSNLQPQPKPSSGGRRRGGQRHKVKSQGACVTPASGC
# UniProt Q13888: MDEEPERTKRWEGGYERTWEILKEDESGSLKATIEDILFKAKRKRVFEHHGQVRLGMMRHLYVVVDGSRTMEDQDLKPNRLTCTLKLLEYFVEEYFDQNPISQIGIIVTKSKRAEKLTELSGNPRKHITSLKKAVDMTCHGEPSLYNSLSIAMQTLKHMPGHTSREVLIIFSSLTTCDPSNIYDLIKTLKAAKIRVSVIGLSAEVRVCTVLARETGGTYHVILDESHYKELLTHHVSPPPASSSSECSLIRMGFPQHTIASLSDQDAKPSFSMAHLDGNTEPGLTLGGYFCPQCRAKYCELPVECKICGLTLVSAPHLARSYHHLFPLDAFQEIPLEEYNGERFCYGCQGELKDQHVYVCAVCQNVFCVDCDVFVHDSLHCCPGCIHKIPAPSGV
# UniProt P02100: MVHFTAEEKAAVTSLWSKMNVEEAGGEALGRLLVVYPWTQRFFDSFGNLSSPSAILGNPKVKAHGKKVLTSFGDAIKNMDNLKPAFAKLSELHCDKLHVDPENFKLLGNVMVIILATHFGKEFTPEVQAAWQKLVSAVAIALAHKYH
# UniProt P14317: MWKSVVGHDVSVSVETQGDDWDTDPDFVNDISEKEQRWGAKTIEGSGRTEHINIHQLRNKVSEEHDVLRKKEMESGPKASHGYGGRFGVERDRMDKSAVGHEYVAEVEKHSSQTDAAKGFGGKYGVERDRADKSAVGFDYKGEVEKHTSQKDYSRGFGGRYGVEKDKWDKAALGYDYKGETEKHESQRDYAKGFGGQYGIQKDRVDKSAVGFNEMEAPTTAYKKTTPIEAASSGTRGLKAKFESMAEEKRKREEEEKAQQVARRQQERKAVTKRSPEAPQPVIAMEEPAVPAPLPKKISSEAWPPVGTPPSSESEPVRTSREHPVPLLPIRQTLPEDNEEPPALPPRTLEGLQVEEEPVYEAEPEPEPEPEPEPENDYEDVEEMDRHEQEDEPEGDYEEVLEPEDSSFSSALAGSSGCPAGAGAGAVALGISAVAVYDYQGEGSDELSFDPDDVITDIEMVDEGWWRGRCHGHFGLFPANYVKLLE
# UniProt P04921: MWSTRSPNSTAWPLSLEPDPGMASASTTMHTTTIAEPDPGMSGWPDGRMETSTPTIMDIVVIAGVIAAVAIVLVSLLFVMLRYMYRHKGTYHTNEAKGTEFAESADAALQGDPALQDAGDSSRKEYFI
# UniProt P12081: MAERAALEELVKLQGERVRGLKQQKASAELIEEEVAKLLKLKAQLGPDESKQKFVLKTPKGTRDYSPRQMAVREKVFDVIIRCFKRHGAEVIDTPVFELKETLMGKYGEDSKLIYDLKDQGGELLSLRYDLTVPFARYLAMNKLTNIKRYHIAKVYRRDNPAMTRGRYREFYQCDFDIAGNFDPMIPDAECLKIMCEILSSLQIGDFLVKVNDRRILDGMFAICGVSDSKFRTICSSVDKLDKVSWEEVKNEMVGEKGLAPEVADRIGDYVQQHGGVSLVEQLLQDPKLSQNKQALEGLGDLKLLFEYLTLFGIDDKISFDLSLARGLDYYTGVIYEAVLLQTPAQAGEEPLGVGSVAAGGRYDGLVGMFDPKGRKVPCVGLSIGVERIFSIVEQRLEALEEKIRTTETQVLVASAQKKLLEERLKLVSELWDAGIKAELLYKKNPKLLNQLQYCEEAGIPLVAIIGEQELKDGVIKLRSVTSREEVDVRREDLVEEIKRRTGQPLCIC
# UniProt P69892: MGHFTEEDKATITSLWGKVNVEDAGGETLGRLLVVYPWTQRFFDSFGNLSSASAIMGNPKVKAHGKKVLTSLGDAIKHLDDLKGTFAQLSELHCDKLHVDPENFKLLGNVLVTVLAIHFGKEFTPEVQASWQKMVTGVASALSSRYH
# UniProt Q9NRV9: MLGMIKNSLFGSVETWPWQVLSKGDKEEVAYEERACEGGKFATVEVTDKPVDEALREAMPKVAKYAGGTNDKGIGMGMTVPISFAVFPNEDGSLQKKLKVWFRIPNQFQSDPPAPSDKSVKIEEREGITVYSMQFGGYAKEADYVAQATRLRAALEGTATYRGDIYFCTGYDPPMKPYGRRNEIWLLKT
# UniProt P35269, whole entry, looked up: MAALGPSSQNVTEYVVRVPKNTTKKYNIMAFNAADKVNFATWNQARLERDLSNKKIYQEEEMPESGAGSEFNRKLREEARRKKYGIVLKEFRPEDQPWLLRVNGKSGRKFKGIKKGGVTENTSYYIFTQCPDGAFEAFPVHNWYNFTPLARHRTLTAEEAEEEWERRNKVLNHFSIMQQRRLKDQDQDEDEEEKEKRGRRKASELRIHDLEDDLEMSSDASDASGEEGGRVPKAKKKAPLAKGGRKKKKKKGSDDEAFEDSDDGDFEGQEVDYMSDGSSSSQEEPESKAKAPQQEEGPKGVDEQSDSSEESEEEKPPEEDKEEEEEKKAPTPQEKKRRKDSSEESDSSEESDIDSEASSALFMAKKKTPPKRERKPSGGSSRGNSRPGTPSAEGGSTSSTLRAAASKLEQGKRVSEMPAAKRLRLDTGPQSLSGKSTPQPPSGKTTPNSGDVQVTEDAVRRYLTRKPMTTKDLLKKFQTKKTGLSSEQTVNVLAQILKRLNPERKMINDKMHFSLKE
# UniProt Q16836: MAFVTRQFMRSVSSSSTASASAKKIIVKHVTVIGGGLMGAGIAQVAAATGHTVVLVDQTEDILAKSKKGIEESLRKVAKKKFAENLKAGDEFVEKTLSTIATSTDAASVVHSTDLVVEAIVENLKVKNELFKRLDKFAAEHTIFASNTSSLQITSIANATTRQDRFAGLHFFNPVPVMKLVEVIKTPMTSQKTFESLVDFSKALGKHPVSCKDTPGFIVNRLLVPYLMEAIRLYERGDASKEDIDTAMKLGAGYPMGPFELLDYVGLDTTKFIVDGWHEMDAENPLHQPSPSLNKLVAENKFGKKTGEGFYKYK
# UniProt P16403, whole entry, looked up: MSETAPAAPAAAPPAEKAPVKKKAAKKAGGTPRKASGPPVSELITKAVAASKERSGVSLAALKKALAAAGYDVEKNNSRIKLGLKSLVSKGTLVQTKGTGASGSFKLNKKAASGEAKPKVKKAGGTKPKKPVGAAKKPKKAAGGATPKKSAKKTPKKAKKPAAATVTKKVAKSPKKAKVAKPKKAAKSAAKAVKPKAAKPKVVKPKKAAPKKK
# UniProt Q8TDG4: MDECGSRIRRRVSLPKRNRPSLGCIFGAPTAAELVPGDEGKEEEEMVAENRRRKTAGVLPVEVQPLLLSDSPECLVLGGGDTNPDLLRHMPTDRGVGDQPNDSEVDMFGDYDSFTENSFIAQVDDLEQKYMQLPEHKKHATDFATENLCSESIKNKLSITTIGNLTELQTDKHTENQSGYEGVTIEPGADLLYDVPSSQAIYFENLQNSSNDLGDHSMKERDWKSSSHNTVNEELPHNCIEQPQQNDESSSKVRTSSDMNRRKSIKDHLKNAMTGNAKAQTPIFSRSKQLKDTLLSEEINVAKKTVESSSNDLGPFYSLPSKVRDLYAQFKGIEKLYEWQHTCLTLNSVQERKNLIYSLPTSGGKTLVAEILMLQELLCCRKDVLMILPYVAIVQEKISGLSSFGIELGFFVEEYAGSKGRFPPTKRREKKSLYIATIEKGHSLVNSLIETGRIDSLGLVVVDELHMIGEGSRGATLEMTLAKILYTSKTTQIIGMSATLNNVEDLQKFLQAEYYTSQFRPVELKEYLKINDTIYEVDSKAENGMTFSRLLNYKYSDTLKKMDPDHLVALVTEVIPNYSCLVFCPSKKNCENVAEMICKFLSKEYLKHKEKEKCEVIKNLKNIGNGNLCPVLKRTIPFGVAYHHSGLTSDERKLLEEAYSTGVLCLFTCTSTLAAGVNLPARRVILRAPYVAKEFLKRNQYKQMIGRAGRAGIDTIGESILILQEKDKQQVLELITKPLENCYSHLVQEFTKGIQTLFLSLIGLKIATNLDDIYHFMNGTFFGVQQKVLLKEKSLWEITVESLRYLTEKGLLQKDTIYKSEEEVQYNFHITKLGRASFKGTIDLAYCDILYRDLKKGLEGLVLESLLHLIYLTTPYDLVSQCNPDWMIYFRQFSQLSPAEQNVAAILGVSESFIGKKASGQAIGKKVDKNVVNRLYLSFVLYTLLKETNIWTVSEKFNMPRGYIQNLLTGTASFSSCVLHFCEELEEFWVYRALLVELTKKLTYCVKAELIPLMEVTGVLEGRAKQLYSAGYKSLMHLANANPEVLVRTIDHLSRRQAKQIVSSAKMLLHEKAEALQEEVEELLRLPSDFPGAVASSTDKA
# UniProt P51858: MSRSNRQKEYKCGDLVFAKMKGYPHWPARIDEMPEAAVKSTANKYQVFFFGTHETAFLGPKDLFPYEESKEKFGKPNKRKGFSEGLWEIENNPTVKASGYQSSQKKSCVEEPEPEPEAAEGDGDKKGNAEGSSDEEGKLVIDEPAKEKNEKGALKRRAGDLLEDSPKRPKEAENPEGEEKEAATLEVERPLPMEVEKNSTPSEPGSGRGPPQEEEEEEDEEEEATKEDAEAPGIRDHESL
# UniProt Q9BQS7: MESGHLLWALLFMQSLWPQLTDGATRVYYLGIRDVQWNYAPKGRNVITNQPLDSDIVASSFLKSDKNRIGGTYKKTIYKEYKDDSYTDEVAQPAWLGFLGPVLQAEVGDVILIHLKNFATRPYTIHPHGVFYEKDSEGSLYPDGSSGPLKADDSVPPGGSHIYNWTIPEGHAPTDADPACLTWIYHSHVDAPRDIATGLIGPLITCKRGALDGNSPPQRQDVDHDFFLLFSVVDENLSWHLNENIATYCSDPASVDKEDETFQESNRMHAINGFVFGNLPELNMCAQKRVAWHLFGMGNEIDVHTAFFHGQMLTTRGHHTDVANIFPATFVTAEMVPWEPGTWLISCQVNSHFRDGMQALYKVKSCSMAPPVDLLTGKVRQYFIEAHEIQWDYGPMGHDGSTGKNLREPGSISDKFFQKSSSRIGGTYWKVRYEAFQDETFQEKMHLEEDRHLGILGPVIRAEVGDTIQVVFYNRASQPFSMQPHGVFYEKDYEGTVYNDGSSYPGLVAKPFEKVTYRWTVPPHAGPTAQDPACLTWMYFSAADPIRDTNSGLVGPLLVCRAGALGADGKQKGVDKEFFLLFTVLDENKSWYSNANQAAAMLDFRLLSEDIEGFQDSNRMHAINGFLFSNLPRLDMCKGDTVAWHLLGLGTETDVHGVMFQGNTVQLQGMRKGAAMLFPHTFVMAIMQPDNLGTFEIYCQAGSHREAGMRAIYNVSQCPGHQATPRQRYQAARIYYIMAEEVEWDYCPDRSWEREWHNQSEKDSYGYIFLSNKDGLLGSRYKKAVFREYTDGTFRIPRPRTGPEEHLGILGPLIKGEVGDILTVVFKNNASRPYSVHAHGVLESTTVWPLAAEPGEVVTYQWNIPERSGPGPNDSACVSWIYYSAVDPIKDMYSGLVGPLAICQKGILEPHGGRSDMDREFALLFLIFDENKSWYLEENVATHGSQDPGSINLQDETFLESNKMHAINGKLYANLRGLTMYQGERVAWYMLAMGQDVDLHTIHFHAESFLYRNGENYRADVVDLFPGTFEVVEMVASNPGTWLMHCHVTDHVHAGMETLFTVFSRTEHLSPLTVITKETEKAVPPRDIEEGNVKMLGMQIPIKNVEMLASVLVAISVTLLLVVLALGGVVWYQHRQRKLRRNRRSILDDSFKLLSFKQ
# UniProt P21266: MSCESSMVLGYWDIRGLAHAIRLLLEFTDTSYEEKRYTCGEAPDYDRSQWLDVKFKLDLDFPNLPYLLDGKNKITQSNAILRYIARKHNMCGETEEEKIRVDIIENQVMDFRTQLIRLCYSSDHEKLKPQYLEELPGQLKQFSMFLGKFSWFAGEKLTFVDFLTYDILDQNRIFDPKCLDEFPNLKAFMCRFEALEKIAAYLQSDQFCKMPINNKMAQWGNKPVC
# Some of the results follow.
# What was measured:
# Assay in all cases: log2 fold change, soluble protein after heating vs DMSO (PISA); higher = thermal stabilisation; K562 cells, 10 uM, 30 min; active = over 0.2 and 3.5 SD of the protein, either way, in both replicates (recomputed)
# [1] = compound: NC(=O)Nc1cc(-c2cccc(F)c2)sc1C(=O)N[C@H]1CCCNC1
# Procedure, shortened: (§1)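 Values are thermal stability changes relative to control samples and are taken from duplicates. They are stated as log2 fold changes. Before quantification by TMTpro 16plex LC-MS/MS with equalised channel sums, K562 cells at 2×10^6 cells/mL were treated with 10 μM compound for 30 min, heated in aliquots for 3 min across 48°C-58°C, pooled, extracted in PBS with 0.5% NP-40 at 4°C, and centrifuged at 21,000xg for 90 min to give the soluble supernatant.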
# [2] = compound: NC(=O)c1cnc(N[C@@H]2CCCC[C@@H]2N)nc1Nc1cccc(-n2nccn2)c1
# Procedure, shortened: as §1
# [3] = compound: NC1(c2ccc(-c3nc4ccn5c(=O)[nH]nc5c4cc3-c3ccccc3)cc2)CCC1
# Procedure, shortened: as §1
# [4] = compound: NCC(=O)Nc1ccc(-n2nc(C(F)(F)F)cc2-c2ccc3c(ccc4ccccc43)c2)cc1
# Procedure, shortened: as §1
# entinostat = compound: Nc1ccccc1NC(=O)c1ccc(CNC(=O)OCc2cccnc2)cc1 [entinostat]
# Procedure, shortened: as §1
# vorinostat = compound: O=C(CCCCCCC(=O)Nc1ccccc1)NO [vorinostat]
# Procedure, shortened: as §1
# citarinostat = compound: O=C(CCCCCCNC(=O)c1cnc(N(c2ccccc2)c2ccccc2Cl)nc1)NO [citarinostat]
# Procedure, shortened: as §1
# silmitasertib = compound: O=C(O)c1ccc2c(c1)nc(Nc1cccc(Cl)c1)c1ccncc12 [silmitasertib]
# Procedure, shortened: as §1
# [5] = compound: O=C1NC(=O)C(c2cnc3ccccn23)=C1c1cn2c3c(cc(F)cc13)CN(C(=O)N1CCCCC1)CC2
# Procedure, shortened: as §1
# [6] = compound: c1cc(OCCN2CCCCC2)cc(-c2n[nH]c3ccc(-c4nnc[nH]4)cc23)c1
# Procedure, shortened: as §1
# entospletinib = compound: c1cn2cc(-c3ccc4cn[nH]c4c3)nc(Nc3ccc(N4CCOCC4)cc3)c2n1 [entospletinib]
# Procedure, shortened: as §1
Target,log2 fold change [1],log2 fold change [2],log2 fold change [3],log2 fold change [4],log2 fold change (entinostat),log2 fold change (vorinostat),log2 fold change (citarinostat),log2 fold change (silmitasertib),log2 fold change [5],log2 fold change [6],log2 fold change (entospletinib)
GTPBP1 (UniProt O00178),inactive: -0.011,inactive: 0.048,inactive: -0.017,inactive: 0.004,inactive: -0.008,inactive: 0.031,inactive: 0.031,inactive: -0.002,inactive: -0.013,inactive: -0.092,inactive: -0.044
H4C1 (UniProt P62805),inactive: 0.015,inactive: 0.294,inactive: 0.527,inactive: -0.054,inactive: 0.095,inactive: 0.522,inactive: -0.059,inactive: -0.089,inactive: 0.06,inactive: -0.009,inactive: 0.054
GTF2H2 (UniProt Q13888),inactive: -0.059,inactive: 0.002,inactive: 0.034,inactive: 0.019,inactive: -0.016,inactive: -0.054,inactive: 0.007,inactive: 0.016,inactive: -0.027,inactive: -0.044,inactive: 0.036
HBE1 (UniProt P02100),inactive: -0.024,inactive: -0.017,inactive: 0.043,inactive: 0.012,inactive: 0.059,inactive: -0.113,inactive: 0.002,inactive: -0.027,inactive: -0.043,inactive: -0.01,inactive: 0.038
HCLS1 (UniProt P14317),inactive: 0.035,inactive: -0.015,inactive: -0.006,inactive: 0.043,inactive: -0.015,inactive: -0.058,inactive: -0.065,inactive: 0.006,inactive: -0.047,inactive: 0.023,inactive: 0.028
GTPBP3 isoform 2 (UniProt Q969Y2),inactive: 0.006,inactive: 0.028,inactive: -0.028,inactive: -0.052,inactive: 0,inactive: -0.043,inactive: -0.085,inactive: 0.018,inactive: -0.024,inactive: -0.149,inactive: 0.064
HDHD5 (UniProt Q9BXW7),inactive: 0.06,inactive: -0.095,inactive: -0.113,inactive: -0.031,inactive: 0.095,inactive: 0.08,inactive: 0.158,inactive: -0.144,inactive: -0.023,inactive: 0.083,inactive: -0.047
GTPBP4 (UniProt Q9BZE4),inactive: -0.057,inactive: 0.09,inactive: 0.294,inactive: -0.129,inactive: -0.063,inactive: 0.092,inactive: 0.039,inactive: 0.091,inactive: 0,inactive: -0.237,inactive: 0.172
GYPC (UniProt P04921),inactive: -0.228,inactive: -0.011,inactive: 0.166,inactive: 0.057,inactive: -0.039,inactive: 0.071,inactive: 0.021,inactive: -0.069,inactive: -0.192,inactive: -0.108,inactive: -0.062
HARS (UniProt P12081),inactive: 0.018,inactive: 0.01,inactive: -0.006,inactive: 0.028,inactive: -0.034,inactive: -0.005,inactive: -0.001,inactive: -0.018,inactive: -0.019,inactive: -0.019,inactive: -0.019
HBG2 (UniProt P69892),inactive: 0.119,inactive: 0.125,inactive: 0.012,inactive: 0.1,inactive: 0.094,inactive: 0.01,inactive: 0.091,inactive: -0.068,inactive: 0.008,inactive: 0.049,inactive: -0.079
GSPT1 isoform 3 (UniProt P15170),inactive: -0.034,inactive: -0.078,inactive: -0.052,inactive: -0.068,inactive: -0.014,inactive: -0.006,inactive: -0.012,inactive: -0.024,inactive: -0.083,inactive: -0.013,inactive: 0.049
HCFC1 isoform 4 (UniProt P51610),inactive: 0.025,inactive: -0.04,inactive: -0.033,inactive: -0.063,inactive: 0.011,inactive: 0.015,inactive: 0.026,inactive: -0.01,inactive: -0.02,inactive: -0.022,inactive: -0.05
GTF3C1 (UniProt Q12789),inactive: -0.207,inactive: -0.087,inactive: -0.226,inactive: -0.342,inactive: 0.029,inactive: -0.029,inactive: -0.078,inactive: 0.106,inactive: -0.073,inactive: 0,inactive: -0.188
GTF2H4 (UniProt Q92759),inactive: -0.061,inactive: -0.142,inactive: -0.069,inactive: -0.15,inactive: -0.062,inactive: -0.182,inactive: -0.517,inactive: 0.231,inactive: 0.203,inactive: 0.035,inactive: 0.261
HEBP1 (UniProt Q9NRV9),inactive: 0.383,inactive: 0.081,inactive: 0.022,inactive: 0.032,inactive: 0.069,inactive: -0.098,inactive: -0.101,inactive: 0.005,inactive: -0.15,inactive: 0.107,inactive: 0.215
GTF2F1 (UniProt P35269),inactive: -0.059,inactive: -0.012,inactive: 0.004,inactive: 0.003,inactive: -0.022,inactive: -0.025,inactive: -0.017,inactive: -0.034,inactive: -0.073,inactive: -0.033,inactive: -0.009
HADH isoform 2 (UniProt Q16836),inactive: -0.031,inactive: -0.024,inactive: -0.024,inactive: -0.026,inactive: -0.013,inactive: -0.008,inactive: -0.004,inactive: -0.043,inactive: -0.026,inactive: 0.016,inactive: 0.043
H1-2 (UniProt P16403),inactive: 0.079,inactive: 0.072,inactive: 0.286,inactive: 0.127,inactive: 0.036,inactive: 0.05,inactive: -0.124,inactive: 0.083,inactive: 0.195,inactive: -0.196,inactive: 0.091
HELQ (UniProt Q8TDG4),inactive: -0.199,inactive: 0.052,inactive: -0.062,inactive: -0.091,inactive: 0.152,inactive: 0.047,inactive: 0.037,inactive: -0.128,inactive: 0.052,inactive: -0.07,inactive: 0.036
GYG1 (UniProt P46976),inactive: 0.012,inactive: -0.017,inactive: 0.075,inactive: 0.134,inactive: -0.019,inactive: -0.056,inactive: -0.011,inactive: 0.049,inactive: 0.037,inactive: -0.057,active: 0.643
HEMGN (UniProt Q9BXL5),inactive: -0.023,inactive: -0.045,inactive: 0.071,inactive: 0.013,inactive: -0.028,inactive: -0.044,inactive: -0.046,inactive: -0.021,inactive: 0.015,inactive: -0.032,inactive: 0.016
GSN (UniProt P06396),inactive: 0.018,inactive: -0.024,inactive: -0.034,inactive: -0.029,inactive: -0.025,inactive: 0.125,inactive: -0.052,inactive: 0.126,inactive: -0.011,inactive: 0.104,inactive: 0.066
HDGF (UniProt P51858),inactive: -0.085,inactive: -0.041,inactive: -0.056,inactive: -0.014,inactive: -0.013,inactive: 0.015,inactive: 0.073,inactive: -0.02,inactive: -0.107,inactive: 0.007,inactive: -0.012
HEPH isoform 3 (UniProt Q9BQS7),inactive: -0.03,inactive: 0.022,inactive: -0.1,inactive: 0.044,inactive: -0.011,inactive: 0.033,inactive: 0.112,inactive: 0.118,inactive: 0.04,inactive: -0.109,inactive: 0.026
GSTM3 (UniProt P21266),inactive: 0.202,inactive: 0.072,inactive: -0.017,inactive: -0.066,inactive: 0.076,inactive: 0.11,inactive: 0.12,inactive: 0.015,inactive: -0.056,inactive: -0.009,inactive: -0.059
HECTD3 (UniProt Q5T447),inactive: -0.064,inactive: -0.015,inactive: -0.066,inactive: -0.014,inactive: 0.024,,inactive: -0.025,inactive: 0.03,inactive: 0.087,inactive: -0.054,inactive: 0.15
HACL1 (UniProt Q9UJ83),inactive: 0.084,inactive: 0.005,inactive: -0.037,inactive: 0.06,inactive: 0.027,inactive: 0,inactive: 0.035,inactive: 0,inactive: 0.054,inactive: 0.01,inactive: 0.028

# Some entries already given with just log2 fold change [6], log2 fold change (entospletinib) and log2 fold change (silmitasertib).
Target | log2 fold change [6] | log2 fold change (entospletinib) | log2 fold change (silmitasertib)
GYPC (UniProt P04921) | inactive: -0.108 | inactive: -0.062 | inactive: -0.069
HACL1 (UniProt Q9UJ83) | inactive: 0.01 | inactive: 0.028 | inactive: 0
